Columns and labels:
Details in all cases: Homo sapiens
phenylpyruvate [1] = assay: (§1) Substrate activity at MIF (unknown origin) assessed as rate constant Km
4-hydroxylphenylpyruvate [2] = assay: as §1
4-chlorophenylpyruvate [3] = assay: as §1
4-methoxyphenylpyruvate [4] = assay: as §1
phenylpyruvate [5] = assay: (§2) Substrate activity at MIF (unknown origin) assessed as rate constant Kcat
4-methoxyphenylpyruvate [6] = assay: as §2
phenylpyruvate [7] = assay: (§3) Substrate activity at MIF (unknown origin) assessed as ratio of Kcat to Km
4-hydroxylphenylpyruvate [8] = assay: as §3
4-chlorophenylpyruvate [9] = assay: as §3
4-methoxyphenylpyruvate [10] = assay: as §3

B1: Macrophage migration inhibitory factor (Homo sapiens), P14174 (protein)
chain: MPMFIVNTNVPRASVPDGFLSELTQQLAQATGKPPQYIAVHVVPDQLMAFGGSSEPCALCSLHSIGKIGGAQNRSYSKLLCGLLAERLRISPDRVYINYYDMNAANVGWNNSTFA
Km (phenylpyruvate [1]): 760 µM | Km (4-hydroxylphenylpyruvate [2]): 940 µM | Km (4-chlorophenylpyruvate [3]): 600 µM | Km (4-methoxyphenylpyruvate [4]): 1300 µM | kcat (phenylpyruvate [5]): 14 s⁻¹ | kcat (4-methoxyphenylpyruvate [6]): 13 s⁻¹ | kcat/Km (phenylpyruvate [7]): 1.9 10^4/M/s | kcat/Km (4-hydroxylphenylpyruvate [8]): 2.6 10^4/M/s | kcat/Km (4-chlorophenylpyruvate [9]): 4.3 10^4/M/s | kcat/Km (4-methoxyphenylpyruvate [10]): 0.98 10^4/M/s
